Measured values reported in paper PMC10163288.
The other results are listed elsewhere or left out.

B1: il10ra_site1_normal_mot_8756ee2cf497b5429c717dfc0c0bcfd6_0001_000000186_0001_1_13_H_._HHH_b1_03452_af2_0001_0000100005_0000001_0 (protein)
chain: SSSSDAQEVVELLREAAELDSEGNPEEAEEVVERARELAEELNNDVLLATARYLERLIRSSSSSS
B2: il10ra_site1_normal_mot_HHH_b2_06857_af2_000000179_0001_42_54_H_._HHH_b2_07980_af2_0001_0000400035_0000002_0 (protein)
chain: SSSSSSSEAIERAIKLLRRAAQIEDEEEVEELLEEAKKLAEEAGNELLAWQIEFLERMLSSSSSS
B3: il10ra_site1_sap_24_mot_HHH_b2_02497_000000141_0001_1_20_H_._HHH_b2_04513_0001_0000100005_0000002_0_0001_af2pred_0001 (protein)
chain: SSSSEEAEELVKEVEEELRRLLEEGNYEEAFRLLREAIRRLIELGDPEAARELSELFLRLASSSS
B4: il10ra_site1_normal_mot_HHH_b2_07784_af2_000000103_0001_19_36_H_._HHH_b1_08449_af2_0001_0000600026_0000002_0 (protein)
chain: SSSSDEHYEKLKELIERIVEALRRNDPEKVEELLRELEELIEEYNNNAAKFALEQLERVLSSSSS
B5: il10ra_site1_normal_mot_HHH_b2_03220_af2_000000223_0001_23_40_H_._HHH_b1_02879_af2_0001_0000100007_0000001_0 (protein)
chain: SSSSDELAEEVWRLLREALQLLEEGNPEEAQEVVERALELAEEAGNELLAIQARFLLRQIESSSS
B6: il10ra_site1_sap_24_mot_HHH_b1_04177_000000174_0001_1_19_H_._HHH_b1_03006_0001_0000300020_0000001_0_0001 (protein)
chain: SSSSSHEEVYELLRRIAELDHDGDQERARELLEEAQEIAEEAGNVLFLWQLEYLQRLLEEHSSSS
B7: il10ra_site1_normal_mot_HHH_b1_05185_000000011_0001_22_39_H_._HHH_b2_07997_0001_0000900026_0000001_0 (protein)
chain: SSSSSDTEKEASEVFVRATRARWEGDEEQAKELLRELEEIAEEGNSEYARLSVRFLQALLSSSSS
B8: il10ra_site1_sap_18_mot_HHH_b1_01011_000000096_0001_1_19_H_._HHH_b1_06403_0001_0000300021_0000001_0_0001 (protein)
chain: SSSSSDEEELEELLEELERLVREGDFERALELAQEIIRLAFRLSDEEALRRLWELLRELVSSSSS
B9: il10ra_site1_normal_mot_HHH_b2_08186_000000021_0001_43_56_H_._HHH_b2_06600_af2_0001_0000100009_0000001_1 (protein)
chain: SSSSSDEELEELLKELKEALERGDQELFLRLLQEALRLAFRLNDEEALQELWELLRELVNSSSSS
B10: il10ra_site1_sap_20_mot_HHH_b2_00984_000000042_0001_1_20_H_._ems_3hC_696_af2_0001_0000100003_0000002_0_0001_af2pred_0001 (protein)
chain: SSSSDMEELERLSREALRLLKEGNPEEAQKVVEEAEELARELNNLNARAVIEYLARLIERSSSSS
B11: il10ra_site1_normal_mot_2c1a291787c6f40772924d4e9068d803_0001_af2_000000187_0001_34_48_H_._HHH_b2_03338_0002_0000400034_0000001_0 (protein)
chain: SSSSDEDEELVERLLEEAKESDDEKERFELSAEAYLVADESNNDELRRLIIEVNAELAQKSSSSS
B12: il10ra_site1_normal_mot_HHH_b2_00984_000000042_0001_1_20_H_._HHH_b2_07840_0001_0000100001_0000001_0 (protein)
chain: SSSSSSDLEELTEELREAVEEGDTELASQIAQEAVRLAIRLSDQEALQELWELIRLVASSSSSSS
B13: il10ra_site1_sap_11_mot_HHH_b1_05357_000000034_0001_23_39_H_._HHH_b2_02685_0001_0000300029_0000002_0_0001_af2pred_0001 (protein)
chain: SSSSDELELSVRMALLSARLAAELGDPELAEAAIRDAKVAAKYNNNEELRKEIEELEEEIRSSSS
B14: il10ra_site1_sap_16_mot_HHH_b2_05009_af2_000000250_0001_40_57_H_._2bb1a06cad284b560c121c567ec17a85_0001_0001_0000800016_0000002_0_0001 (protein)
chain: SSSSSDKRERLLRLVLELARAFIRGDEELIKELLEEVEEIAEELNDERVLKMLEDLKKALSSSSS
B15: il10ra_site1_normal_mot_HHH_b1_05937_af2_000000262_0001_20_37_H_._HHH_b2_04780_af2_0001_0000400025_0000002_0 (protein)
chain: SSSSDEEEEELERLKEEIEEAIKKNDEELALRLIIELLRLAFRARDPEAVKAAWELAKLIESSSS
B16: il10ra_site1_sap_14_mot_HHH_b1_02492_000000051_0001_1_21_H_._HHH_b2_05983_0001_0000300015_0000001_0_0001_af2pred_0001 (protein)
chain: SSSSDEEEEIEELFEEARKLLEEGDDEEALRVLRELVRLAFRTGDPEATRLALELAELLKGSSSS
B17: il10ra_site1_normal_mot_HHH_b2_03495_af2_000000088_0001_20_36_H_._HHH_b1_05664_0001_0000100005_0000001_0 (protein)
chain: SSSSDEEVQEYVEEVEEQLRELAKKNPEEFSQLLFEATRFVWERNDKEALALLNKLALELKSSSS
B18: il10ra_site1_sap_17_mot_ems_3hM_2400_000000184_0001_1_19_H_._HHH_b2_02810_0001_0000100004_0000001_0_0001_af2pred_0001 (protein)
chain: SSSSSEEKLEAAIKFIEWLIEAGDPEAARLLAEIALELARDLNDEEVEERVRELLREIEENSSSS
B19: il10ra_site1_normal_mot_HHH_b1_03754_af2_000000016_0001_40_56_H_._HHH_b2_05518_0001_0000600049_0000001_0_af2pred_dldesign_0_af2pred (protein)
chain: SSSSSPEKEALERALKYLEFLKEAGDLEAATRHARALLALAKKWKDEETIKRVEALLKELSSSSS
B20: il10ra_site1_normal_mot_HHH_b1_03900_000000129_0001_1_16_H_._HHH_b1_05120_af2_0001_0001200013_0000001_0 (protein)
chain: SSSSDEEEIYELIKELARLLIRNDPERAEELLEELRELAEKLNDPAVERAVEILEEALEATSSSS
B21: il10ra_site1_normal_mot_HHH_b2_04680_000000215_0001_1_16_H_._HHH_b2_04874_af2_0001_0000100001_0000002_0 (protein)
chain: SSSSSSHELTREAYELLREAFEIPDEEEVEKLLEEALQLAEEANNFALAFAIRLALKSLESSSSS
B22: il10ra_site1_sap_13_mot_HHH_b2_00564_af2_000000012_0001_18_34_H_._HHH_b2_04461_af2_0001_0000500018_0000001_0_0001_af2pred_0001 (protein)
chain: SSSSDKEQEEEFEQLTERAEELGDKSTAWLIELALEAYRITNDERALEIARRLLRLAEEESSSSS
B23: il10ra_site1_sap_24_mot_HHH_b2_02354_af2_000000157_0001_40_56_H_._HHH_b2_02898_af2_0001_0000900025_0000001_0_0001 (protein)
chain: SSSSSEEERYAELSLMFARQLIEAGSEEAAREFIRIAIDVVKRLNDPEVAEQLEELLEELSSSSS
B24: il10ra_site1_normal_mot_b26a303360aa2756ef5b79665ce52f45_0001_000000179_0001_1_11_H_._HHH_b1_01396_0001_0000100005_0000001_0 (protein)
chain: SSSSSSDEENRRIIELIRKAAHIDDPEEAREILEEAIELAEEANNPVLLFSAEHLLRADSSSSSS

Target: il10ra, Q13651
Test: yeast display titration

Apparent Kd, inactive:
B1 no binding seen
B2 no binding seen
B3 no binding seen
B4 > 1.37 µM
B5 no binding seen
B6 no binding seen
B7 no binding seen
B8 no binding seen
B9 no binding seen
B10 no binding seen
B11 no binding seen
B12 no binding seen
B13 no binding seen
B14 no binding seen
B15 no binding seen
B16 no binding seen
B17 no binding seen
B18 no binding seen
B19 no binding seen
B20 no binding seen
B21 no binding seen
B22 no binding seen
B23 no binding seen
B24 no binding seen

Copied from the results shown (2 entries):
Apparent Kd, inactive:
B14 no binding seen
B15 no binding seen
